Reference: patent publication US20040171585
For at least one entry, the source does not settle the construct or the ends of the probe.

Legend:
[1] = test system: HNF-4α (full length); assay: activity assay; details: in vitro transcription of G-less cassette with three C3P copies, HeLa nuclear extract; recombinant HNF-4α (tag not restated), approaches saturation at 200 ng; purified recombinant protein; protein details: His6
[2] = test system: HNF-4α (full length); assay: EMSA; details: binding rises with His-HNF-4α concentration; activated by C12-C16 saturated acyl-CoAs (maximal with myristoyl-CoA), inhibited by stearoyl-CoA; purified recombinant protein; protein details: His6

For “GCAGGTGACCTTTGCCCAGCGCC (double strand) [C3P element of apo CIII promoter (-87/-66)]”, the “activity on this sequence” value [1] was “active” and the binding result [2] was “binds”.
